The source of these data is patent US8263056B2, “Dyed-hair-binding peptides and peptide-based hair reagents for personal care” (E I du Pont de Nemours and Company, priority 2007, dated 2012).

A short description of this series: Minitress procedure for evaluation of peptides for dye enhancement (color retention after shampoo cycles). The following applies: equivalent of 12 shampoo treatments, relative to dyed hair without peptide. Also noted: species or system human.

Consider “ssSFAYLVPDDGWLSsr (SSSFAYLVPDDGWLSSR; dye conjugate; flanking ss/Ssr residues; Dyed-hair-bindg peptide) [Dye-17]”, for which the “Delta E difference” value (basic, pH 8.75, 1 mg/mL peptide) was 2.83.

For the substance “ssNYNYNYNYQYSsr (SSNYNYNYNYQYSSR; dye conjugate; flanking ss/Ssr residues; Dyed-hair-bindg peptide) [Dye-1]”, the “Delta E difference” value by setting is: (acidic, pH 3.87, 0.4 mg/mL peptide) 14; (acidic, pH 3.9, 0.4 mg/mL peptide) 8.75; (basic, pH 8.9, 2 mg/mL peptide) 6.42; (basic, pH 9.0, 2 mg/mL peptide) 6.8.

For the substance “ssYYYDYYQQDYSsr (SSYYYDYYQQDYSSR; dye conjugate; flanking ss/Ssr residues; Dyed-hair-bindg peptide) [Dye-26]”, the “Delta E difference” value is, setting by setting: (acidic, pH 4.2, 0.4 mg/mL peptide) 9.06; (basic, pH 8.7, 2 mg/mL peptide) 5.08; (basic, pH 9.0, 1 mg/mL peptide) 4.6.

With “ssFAEAWSRAWPRAEVFFPSRGY (SSFAEAWSRAWPRAEVFFPSRGY; dye conjugate; Dyed-hair-bindg peptide) [Dye-24]”, under “basic, pH 9.0, 2 mg/mL peptide”, the “Delta E difference” value is reported as 3.74.
